test system: inhibitorischen Autorezeptoren in hippocampalem Gewebe; experiment: Transmitter release study: in vitro acetylcholine release from electrically stimulated hippocampal slices, antagonism of carbachol; type: cell-based, Ratten; conditions: selectivity: cortex M₁ binding versus ACh release in hippocampus
Source text: B. Transmitter Release Studien
Die Versuche zur in-vitro Freisetzung von Acetylcholin aus hippocampalen Gewebeschnitten wurden in Analogie zu Anord nungen durchgeführt, die für die Freisetzung von 5-HT aus Hypothalamus- bzw. Hippocampus-Gewebe beschrieben sind (vgl. M.H. Richards, Naunyn Schmiedeberg's Arch. Pharmacol. 329, 359-366 (1985) und T.J. Feuerstein, G. Hertting und R. Jackisch, Europ. J. Pharmacol. 107, 233-242 (1985)).
Männliche Ratten (Stamm Chbb:Thom, Gewicht 200 bis 300 g) wurden ohne Vorbehandlung dekapitiert; das gesamte Gehirn wurde sofort entnommen und unter Eiskühlung zerlegt. Gemäß den oben beschriebenen Verfahren wurde der Hippocampus in 0,4 mm dicke Schnitte mit Hilfe eines McIlwain-Gewebehackers geschnitten. Die Gewebeschnitte wurden 30 Minuten lang bei 37°C vorincubiert in Gegenwart von 0,05 mM ³H-Cholin in Krebs-Henseleit Puffer der folgenden Zusammensetzung: 120 mM NaCl, 4,8 mM KCl, 1,3 mM CaCl₂, 1,2 mM KH₂PO₄, 1,2 mM MgSO₄ und 25 mM NaHCO₃. Der Puffer enthielt zusätzlich 2 g Glucose und 100 mg EDTA. Der Puffer wurde mit Natronlauge auf einen pH-Wert von 7,4 bei 20°C eingestellt. Alle Lösungen wurden kontinuierlich mit 95 % O₂ und 5 % CO₂ gesättigt. Die Gewebeschnitte wurden daraufhin gespült, jeder Gewebeschnitt wurde jeweils willkürlich auf 12 Superfusionseinheiten gegeben und mit der Pufferlösung bei 37°C bei einer Fließgeschwindigkeit von 1 ml/min überspült. Die Gewebeschnitte wurden jeweils von einem Polypropylennetzwerk zwischen zwei Platinelektroden gehalten. Nach 50-minütiger Überspülung wurden 4-Minuten-Fraktionen des Superfusats über eine gesamte Zeitdauer von 92 Minuten gesammelt. Die Gewebeschnitte wurden zweimal elektrisch stimuliert, und zwar 60 Minuten (S1) und 100 Minuten (S2) nach Beginn der Superfusion. Dabei wurden Rechteckimpulse von 2 ms Dauer und mit einer Frequenz von 3 Hz 100 Sekunden lang bei 5 V/cm und 24 mA mittels eines HSE Stimulators II der Firma Hugo Sachs Elektronik, Hugstetten, West-Deutschland, verabreicht. Die zu prüfenden Substanzen wurden dem Puffer ab 20 Minuten vor dem Zeitpunkt S2 zusammen mit dem Agonisten (Carbachol) beigefügt. Am Ende wurden die Gewebeschnitte aus den Kammern entfernt und zur Bestimmung des verbliebenen Tritiums solubilisiert. […]

Going from `CCN(CC)CC1CCCCN1CC(=O)N1c2cc(Cl)ccc2C(=O)Nc2cccnc21` (racemic) [C, (±)-9-Chlor-11-[[2-[(diethylamino)methyl]-1-piperidinyl]acetyl]-5,11-dihydro-6H-pyrido[2,3-b][1,4]benzodiazepin-6-on] to `CCN(CC)CC1CCCCN1CC(=O)N1c2ccccc2C(=O)Nc2cccnc21` (single isomer, unassigned; (+)) [A, (+)-11-[[2-[(Diethylamino)methyl]-1-piperidinyl]acetyl]-5,11-dihydro-6H-pyrido[2,3-b][1,4]benzodiazepin-6-on], the “Verhältnis von IC₅₀ (Cortex) zu pA₂ (ACh-Release)” value (from here on “Verhältnis von IC₅₀”) rises from 10 to 14.

Going from `O=C1Nc2cccnc2N(C(=O)CCC#CCN2CCCCC2)c2ccccc21` [B, 5,11-Dihydro-11-[1-oxo-6-(1-piperidinyl)-4-hexin-1-yl]-6H-pyrido[2,3-b][1,4]benzodiazepin-6-on] to `Cc1scc2c1N(C(=O)CCC#CCN1CCCCCC1)c1ccccc1NC2=O` [H, 4,9-Dihydro-3-methyl-4-[6-(hexahydro-1H-1-azepinyl)-1-oxo-4-hexin-1-yl]-10H-thieno[3,4-b][1,5]benzodiazepin-10-on], the “Verhältnis von IC₅₀” value falls from 19 to 7.

Going from `CCCN(CCC)CC1CCCCN1CCNC(=O)N1c2ccccc2C(=O)Nc2cccnc21.CS(=O)(=O)O` (stereo not shown) [D, 5,11-Dihydro-11-[[[2-[2-[(dipropylamino)methyl]-1-piperidinyl]ethyl]amino]carbonyl]-6H-pyrido[2,3-b][1,4]benzodiazepin-6-on-methansulfonat] to `CN(CCC1CCCCCN1C)CC(=O)N1c2ccccc2C(=O)Nc2cccnc21` (stereo not shown) [L, 5,11-Dihydro-11-[[[2-(1-methyl-hexahydro-1H-2-azepinyl)ethyl]methylamino]acetyl]-6H-pyrido[2,3-b][1,4]benzodiazepin-6-on], the “Verhältnis von IC₅₀” value falls from 20 to 11.

Going from `O=C1Nc2cccnc2N(C(=O)N2CCCC(CCCN3CCCCC3)C2)c2ccccc21` (stereo not shown) [E, 5,11-Dihydro-11-[[3-[3-(1-piperidinyl)-1-propyl]-1-piperidinyl]carbonyl]-6H-pyrido[2,3-b][1,4]benzodiazepin-6-on] to `Cc1scc2c1N(C(=O)CN1CCC(CCCN3CCCCC3)CC1)c1ccccc1NC2=O` [F, 4,9-Dihydro-3-methyl-4-[[4-[3-(1-piperidinyl)-1-propyl]-1-piperidinyl]acetyl]-10H-thieno[3,4-b][1,5]benzodiazepin-10-on], the “Verhältnis von IC₅₀” value falls from 35 to 3.

First: CCN(CC)CC1COCCN1CCCC(=O)N1c2ccccc2C(=O)Nc2cccnc21 (stereo not shown) [I, 11-[4-[3-[(Diethylamino)methyl]-4-morpholinyl]-1-oxo-1-butyl]-5,11-dihydro-6H-pyrido[2,3-b][1,4]benzodiazepin-6-on]
Second: CN(CCC1CCCN1C)CC(=O)N1c2ccccc2C(=O)Nc2cccnc21 (stereo not shown) [K, 5,11-Dihydro-11-[[[2-(1-methyl-2-pyrrolidinyl)ethyl]methylamino]acetyl]-6H-pyrido[2,3-b][1,4]benzodiazepin-6-on]
The “Verhältnis von IC₅₀” value of the first is lower: 3 for the first, 10 for the second.

Source: EP0402734A2, “Composition for the treatment of application of the central nervous system and to enhance cerebral perfusion” (Dr. Karl Thomae GmbH, priority 1989, dated 1990)
